Reference: patent US7794972B2, “Benzoate-and anthranilate-inducible promoters” (priority 2002, dated 2010)

System: P. fluorescens
Test: Metabolism of the inducer by the host cells (HPLC of culture broth)
Settings: for metabolism of the inducer by P. fluorescens: strain that is no knock-out

SMILES	metabolism of the inducer by P. fluorescens	metabolism of the inducer by antA knock-out strain (insertional inactivation of antA, 20 L scale, during induction)	metabolism of the inducer by benAB knock-out strain (benAB deletion mutants, ~5 mM benzoate, 24 hr, HPLC of cell-free broth)
Nc1cccc(Cl)c1C(=O)O [6-chloro-anthranilate, 6-chloroanthranilate]	not metabolized	–	–
Nc1ccccc1C(=O)[O-].[Na+] [sodium anthranilate]	–	not metabolized	–
O=C([O-])c1ccccc1.[Na+] [sodium benzoate]	metabolize benzoate efficiently	–	unable to metabolize benzoate
